# Primary screen of a compound library

Protein sequences, listed by entry. Tags and fused reporters are not part of them.
UniProt E9BF75, entry or part of it: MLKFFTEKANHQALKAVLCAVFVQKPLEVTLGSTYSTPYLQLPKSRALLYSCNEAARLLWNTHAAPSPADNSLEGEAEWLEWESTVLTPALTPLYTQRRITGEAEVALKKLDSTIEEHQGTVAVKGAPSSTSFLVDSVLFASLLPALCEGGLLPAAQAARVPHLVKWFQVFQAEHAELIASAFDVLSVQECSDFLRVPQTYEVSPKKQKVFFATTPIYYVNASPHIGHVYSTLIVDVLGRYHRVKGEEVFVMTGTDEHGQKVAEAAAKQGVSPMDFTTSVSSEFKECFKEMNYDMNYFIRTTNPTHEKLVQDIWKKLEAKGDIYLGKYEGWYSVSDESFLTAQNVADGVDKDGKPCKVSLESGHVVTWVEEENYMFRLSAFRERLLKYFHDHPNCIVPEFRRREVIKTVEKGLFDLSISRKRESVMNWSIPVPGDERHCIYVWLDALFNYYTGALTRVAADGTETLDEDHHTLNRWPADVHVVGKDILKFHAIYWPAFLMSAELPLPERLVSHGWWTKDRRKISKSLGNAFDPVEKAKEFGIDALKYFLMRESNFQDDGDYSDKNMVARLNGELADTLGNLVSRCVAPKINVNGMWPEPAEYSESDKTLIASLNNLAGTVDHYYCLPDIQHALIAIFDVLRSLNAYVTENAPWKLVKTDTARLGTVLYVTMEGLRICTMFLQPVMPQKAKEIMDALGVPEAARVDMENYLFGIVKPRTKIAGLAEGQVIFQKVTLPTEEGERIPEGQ

A: 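Assay on Mycobacterium tuberculosis, filed only as a heat shock assay from Cornell; the read-out is not stated. The concentration is filed as 10 mM, unlikely as a test dose, so the dose is not known. The record gives no direction; compounds that gave an IC50 in retests scored well above the rest, so higher reads as stronger inhibition. Of about 69,000 compounds tested this way, about 930 (1.4%) reached 50% or more in at least one test.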
B: 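Whole-cell assay for inhibitors of Mycobacterium tuberculosis growth, labelled Cornell in the record; the read-out is not stated. The concentration is filed as 10 mM, unlikely as a test dose, so the dose is not known. The record gives no direction; compounds strong in two other growth screens of this library score well above the rest, so higher reads as stronger inhibition. Of about 53,000 compounds tested this way, about 900 (1.7%) reached 50% or more in at least one test.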
C: 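Primary screen of methionyl-tRNA synthetase; the read-out is not stated. Target: Methionyl-tRNA synthetase (putative), Leishmania donovani (UniProt E9BF75). The test concentration is not given. The values are filed as inhibition. Of about 68,000 compounds tested this way, about 24 (0.035%) reached 50% or more in at least one test.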

Results are percentages, as filed.
The record does not define 0% and 100%; most values in the screen are far below 50% and negative numbers occur (in some assays of this library far below -100).
Compounds were drawn at random from those tested, without regard to their results.

CC(C)n1nc2c(cc1=O)CN(Cc1nc(-c3ccoc3)no1)CC2 gave A: -7.796%; B: -17.16%; C: 3.896%. For CC(=O)N[C@@H]1CN(Cc2ccccc2C(=O)O)C[C@H]1C(C)C the result was A: -2.54%; B: 11.73%; C: 7.532%. Cc1ccc(CC2COc3ccccc3C2)c(N)n1 (stereo not given) gave A: -12.57%; B: 9.061%; C: 4.556%. With CCn1cc(CN(C)S(=O)(=O)c2ccc(C(C)C)cc2)cn1 the screen gave A: 6.635%; C: -7.286%. Result for CN(C(=O)c1ccccc1N(C)S(C)(=O)=O)c1ccc(C(C)(C)C)cc1 was A: -8.826%; B: 14.04%; C: -0.838%.

Result for CC(=O)N1CCc2[nH]nc(C(=O)N3CC=CC3)c2C1 was A: 4.821%; B: -51.33%; C: 16.81%. For [H][C@@]12C[C@H](C(=O)N3CCCCO3)CN(Cc3ccncc3)[C@]1([H])CCO2 the result was A: 11.88%; B: 31.08%. COc1ccc(C(C)NCc2ccsc2)cc1Cn1cccn1 (stereo not given) gave A: -10.38%; B: 20.28%; C: 9.025%. O=C(C1=COCCO1)N1CC(Oc2nc3c(Cl)cccc3s2)C1 read A: 20.8%; B: 16.67%; C: 9.832%. Cc1cc(OC(F)F)c(C(=O)N2CC[C@H](O)C2)s1 read A: 0.07478%; B: -7.334%; C: 9.651%.

Result for COc1cc(N2C[C@H]3CN(CCN4CCCC4)C(=O)[C@H]3C2)ncn1 was C: 14.13%. With NC(=O)NCC1CCCCN1C(=O)c1cccc(Cl)c1 (stereo not given) the screen gave A: -14.95%; B: -13.22%; C: 10.89%. CN(C)CCn1c(=O)oc2ccc(NC(=O)c3cc(Cl)c[nH]3)cc21 gave A: 4.541%; B: 31.67%; C: 20.49%. CCCN1CCC(c2nc3ccc(-c4cccc(F)c4)cn3n2)CC1.O=C(O)C(F)(F)F read A: -12.48%; B: 0.3992%. Cc1cncc(C(=O)N2CCCCC2c2nc[nH]n2)c1 (stereo not given) gave A: 4.795%; B: -50.19%; C: 6.72%.

CCS(=O)(=O)N1Cc2nccn2CC(CN2CCCC2)C1 (stereo not given) gave A: 6.65%; B: 12.53%; C: 12.71%. With CSc1ccc(S(=O)(=O)N2CCCCC2CCNC(C)=O)cc1 (stereo not given) the screen gave A: -41.45%; B: 32.38%; C: 15.5%. Result for CC(=O)NC1CCN(c2nc(N(C)C)nc3c2CCN(C(C)=O)C3)CC1 was A: -5.748%; B: -23.64%; C: 13.59%. With O=C(O)C(F)(F)F.[H][C@]12CN(c3ncc(C)cn3)C[C@@]1(C(=O)O)CCCN(C1CCOC1)C2 (stereo not given in full) the screen gave A: 10.19%; B: 13.6%. c1cncc(N2CCCn3nnc(CN4CCCCC4)c3C2)c1 gave C: 4.945%.

Result for O=C(O)C(F)(F)F.[H][C@@]12CN(C(=O)c3ccco3)C[C@@]1([H])N(Cc1cccnc1)C(=O)CO2 was A: 1.347%; B: -2.099%. With Cc1oncc1C(=O)N1CCc2ncnc(-c3cnn(C)c3)c2CC1 the screen gave C: 7.614%.

The first 2 entries again:

{"compound": "CC(C)n1nc2c(cc1=O)CN(Cc1nc(-c3ccoc3)no1)CC2", "A": -7.796, "B": -17.16, "C": 3.896}
{"compound": "CC(=O)N[C@@H]1CN(Cc2ccccc2C(=O)O)C[C@H]1C(C)C", "A": -2.54, "B": 11.73, "C": 7.532}

Source: ChEMBL document CHEMBL3988442, “University of Dundee, Small-Polar-MMV Screening Library” (2021).